Experimental data reported in the supplement of paper PMC6411743.
± gives the standard deviation of the averaged measurements. The list shows a part of the results.

Molecular target: T1, UniProt Q6IN85 and related entries
T1 sequence (whole entry): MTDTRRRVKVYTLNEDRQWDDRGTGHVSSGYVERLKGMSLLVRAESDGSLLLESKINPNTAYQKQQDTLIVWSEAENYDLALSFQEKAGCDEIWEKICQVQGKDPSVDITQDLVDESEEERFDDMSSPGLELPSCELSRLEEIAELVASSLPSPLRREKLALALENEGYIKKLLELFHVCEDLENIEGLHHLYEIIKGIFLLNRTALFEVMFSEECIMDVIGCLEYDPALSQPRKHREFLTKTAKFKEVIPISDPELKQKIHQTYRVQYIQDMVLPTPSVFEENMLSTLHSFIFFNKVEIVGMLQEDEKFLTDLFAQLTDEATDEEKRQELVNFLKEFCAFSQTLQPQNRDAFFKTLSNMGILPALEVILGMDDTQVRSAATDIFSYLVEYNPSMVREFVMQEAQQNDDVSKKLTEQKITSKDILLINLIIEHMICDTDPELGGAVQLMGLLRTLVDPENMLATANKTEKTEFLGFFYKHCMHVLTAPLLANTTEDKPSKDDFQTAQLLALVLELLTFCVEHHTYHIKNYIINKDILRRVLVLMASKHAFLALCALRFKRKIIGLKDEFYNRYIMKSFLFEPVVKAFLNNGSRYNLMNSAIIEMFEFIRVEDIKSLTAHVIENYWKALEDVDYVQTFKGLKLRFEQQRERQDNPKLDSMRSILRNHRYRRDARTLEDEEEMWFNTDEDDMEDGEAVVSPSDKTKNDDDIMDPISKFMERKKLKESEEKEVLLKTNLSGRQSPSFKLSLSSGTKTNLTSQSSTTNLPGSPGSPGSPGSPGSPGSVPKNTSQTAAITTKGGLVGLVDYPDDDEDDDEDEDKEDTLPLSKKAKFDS
Assay: NP40-soluble protein abundance relative to vehicle (solubility fold change) (ratio); higher = more soluble protein in presence of GTP
Procedure: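 Solubility proteome profiling in Jurkat crude lysate. Lysate was treated with Mg-GTP (0.1-10 mM) for 10 min at room temperature and 3 min at 37 °C, then solubilised with 0.8% NP40 and benzonase, followed by ultracentrifugation. Proteins were quantified by TMT10 LC-MS/MS; the value is the NP40-soluble abundance relative to the NP40-processed vehicle, from 3 independent experiments.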

Nc1nc2c(ncn2[C@@H]2O[C@H](COP(=O)(O)OP(=O)(O)OP(=O)(O)O)[C@@H](O)[C@H]2O)c(=O)[nH]1 [guanosine triphosphate]
NP40-soluble protein abundance (concentration: 0.1mM): 1.01 ± 0.059 | NP40-soluble protein abundance (concentration: 0.5mM): 1.05 ± 0.05 | NP40-soluble protein abundance (concentration: 1mM): 0.986 ± 0.047 | NP40-soluble protein abundance (concentration: 2mM): 0.971 ± 0.036 | NP40-soluble protein abundance (concentration: 4mM): 0.941 ± 0.046 | NP40-soluble protein abundance (concentration: 6mM): 0.939 ± 0.031 | NP40-soluble protein abundance (concentration: 8mM): 0.97 ± 0.026 | NP40-soluble protein abundance (concentration: 10mM): 0.92 ± 0.059
